Values from PubChem BioAssay AID1259254 (NCATS, 2017)
This is an unselected part of about 59,000 deposited reagents. Over the whole deposit, about 1,550 (2.6%) are marked active. 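G2 share is only a proxy for re-replication; each gene was hit by three separate siRNAs, and active genes were retested.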 Entries without a mark were called inactive. Not all columns of the deposit are shown. Not given: the amount of reagent.

Assay: 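Gene knock-downs that lead to re-replication, shown by excess G2 DNA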 (primary screen)
Cell system: human HCT116 colorectal cancer cells
Reagents: single siRNA against human genes
Time to read-out: 3 days
Read-out: 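Imaged Hoechst DNA stain sorts each cell into a cycle phase by DNA amount; per plate, G2 fraction set to 0% for non-targeting and 100% for GMNN siRNA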
Reading the numbers: G2 robust z-score and G2 cells, % of GMNN control: higher = more G2 cells, more excess DNA replication
Rule for the call: 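Active siRNAs have a G2 robust z of 5 or more median absolute deviations over the median, which in these data means about 38% or higher of GMNN control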

After knock-down of STX16 (GeneID 8675) [SID160720579], the screen gave G2 robust z-score 1.79; G2 cells, % of GMNN control 15.6.
Knock-down of STX16 (GeneID 8675) [SID160720580] gave: G2 robust z-score -0.392; G2 cells, % of GMNN control 0.212.
After knock-down of STX16 (GeneID 8675) [SID160720582], the screen gave G2 robust z-score -0.341; G2 cells, % of GMNN control 0.569.
For ZNF658 (GeneID 26149) [SID160737701], the entry reads G2 robust z-score 0.406; G2 cells, % of GMNN control 5.83.
Knock-down of ZNF658 (GeneID 26149) [SID160737702] resulted in: G2 robust z-score -0.314; G2 cells, % of GMNN control 0.761.
With knock-down of ZNF658 (GeneID 26149) [SID160737703], the screen gave G2 robust z-score 3.63; G2 cells, % of GMNN control 28.5.
Against MON2 (GeneID 23041) [SID160735307], the entry reads G2 robust z-score 8.78 (active); G2 cells, % of GMNN control 64.8.
After knock-down of MON2 (GeneID 23041) [SID160735310] the results were G2 robust z-score -0.0995; G2 cells, % of GMNN control 2.27.
Against MON2 (GeneID 23041) [SID160735311] the deposit lists G2 robust z-score 0.928; G2 cells, % of GMNN control 9.5.
Knock-down of SHTN1 (GeneID 57698) [SID160746608] came out at: G2 robust z-score -0.539; G2 cells, % of GMNN control -0.827.
SHTN1 (GeneID 57698) [SID160746609] scored G2 robust z-score 0.534; G2 cells, % of GMNN control 6.72.
Knock-down of SHTN1 (GeneID 57698) [SID160746610] gave: G2 robust z-score -0.693; G2 cells, % of GMNN control -1.91.
FLVCR2 (GeneID 55640) [SID160743975] showed G2 robust z-score 0.11; G2 cells, % of GMNN control 3.74.
For FLVCR2 (GeneID 55640) [SID160743976], the values are G2 robust z-score -0.616; G2 cells, % of GMNN control -1.36.
Knock-down of FLVCR2 (GeneID 55640) [SID160743977] came out at: G2 robust z-score -0.715; G2 cells, % of GMNN control -2.06.
With knock-down of ZNF208 (GeneID 7757) [SID160719278], the record shows G2 robust z-score 1.05; G2 cells, % of GMNN control 10.4.
ZNF208 (GeneID 7757) [SID160719279] showed G2 robust z-score -0.211; G2 cells, % of GMNN control 1.48.
After knock-down of ZNF208 (GeneID 7757) [SID160719280], the record shows G2 robust z-score 1.06; G2 cells, % of GMNN control 10.4.
